From the supplement of paper PMC10849652
The list shows a part of the results.

Chains of the proteins cited; added tags and fusions are not shown. Lines headed by an entry give the natural chain unless they say otherwise; changes in a name come on top.
UniProt Q96I23: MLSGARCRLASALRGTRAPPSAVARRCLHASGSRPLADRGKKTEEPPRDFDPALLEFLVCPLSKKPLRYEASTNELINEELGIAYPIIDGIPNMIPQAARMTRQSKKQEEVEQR
UniProt Q9UHX1: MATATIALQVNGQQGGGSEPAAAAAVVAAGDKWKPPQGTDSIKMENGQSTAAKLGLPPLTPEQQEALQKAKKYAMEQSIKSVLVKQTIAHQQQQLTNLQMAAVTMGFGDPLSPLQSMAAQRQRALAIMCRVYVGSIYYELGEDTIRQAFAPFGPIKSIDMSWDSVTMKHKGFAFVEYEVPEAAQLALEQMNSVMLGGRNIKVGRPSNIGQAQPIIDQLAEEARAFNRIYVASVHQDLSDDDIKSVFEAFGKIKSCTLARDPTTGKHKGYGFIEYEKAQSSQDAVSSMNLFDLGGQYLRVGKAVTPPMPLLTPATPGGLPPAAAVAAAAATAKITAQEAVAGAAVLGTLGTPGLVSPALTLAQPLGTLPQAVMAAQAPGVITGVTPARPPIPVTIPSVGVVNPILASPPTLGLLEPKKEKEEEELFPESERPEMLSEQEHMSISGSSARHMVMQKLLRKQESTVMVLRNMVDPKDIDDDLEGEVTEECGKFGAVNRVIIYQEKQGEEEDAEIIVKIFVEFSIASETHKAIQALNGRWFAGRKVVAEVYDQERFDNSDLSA
UniProt Q8TB72: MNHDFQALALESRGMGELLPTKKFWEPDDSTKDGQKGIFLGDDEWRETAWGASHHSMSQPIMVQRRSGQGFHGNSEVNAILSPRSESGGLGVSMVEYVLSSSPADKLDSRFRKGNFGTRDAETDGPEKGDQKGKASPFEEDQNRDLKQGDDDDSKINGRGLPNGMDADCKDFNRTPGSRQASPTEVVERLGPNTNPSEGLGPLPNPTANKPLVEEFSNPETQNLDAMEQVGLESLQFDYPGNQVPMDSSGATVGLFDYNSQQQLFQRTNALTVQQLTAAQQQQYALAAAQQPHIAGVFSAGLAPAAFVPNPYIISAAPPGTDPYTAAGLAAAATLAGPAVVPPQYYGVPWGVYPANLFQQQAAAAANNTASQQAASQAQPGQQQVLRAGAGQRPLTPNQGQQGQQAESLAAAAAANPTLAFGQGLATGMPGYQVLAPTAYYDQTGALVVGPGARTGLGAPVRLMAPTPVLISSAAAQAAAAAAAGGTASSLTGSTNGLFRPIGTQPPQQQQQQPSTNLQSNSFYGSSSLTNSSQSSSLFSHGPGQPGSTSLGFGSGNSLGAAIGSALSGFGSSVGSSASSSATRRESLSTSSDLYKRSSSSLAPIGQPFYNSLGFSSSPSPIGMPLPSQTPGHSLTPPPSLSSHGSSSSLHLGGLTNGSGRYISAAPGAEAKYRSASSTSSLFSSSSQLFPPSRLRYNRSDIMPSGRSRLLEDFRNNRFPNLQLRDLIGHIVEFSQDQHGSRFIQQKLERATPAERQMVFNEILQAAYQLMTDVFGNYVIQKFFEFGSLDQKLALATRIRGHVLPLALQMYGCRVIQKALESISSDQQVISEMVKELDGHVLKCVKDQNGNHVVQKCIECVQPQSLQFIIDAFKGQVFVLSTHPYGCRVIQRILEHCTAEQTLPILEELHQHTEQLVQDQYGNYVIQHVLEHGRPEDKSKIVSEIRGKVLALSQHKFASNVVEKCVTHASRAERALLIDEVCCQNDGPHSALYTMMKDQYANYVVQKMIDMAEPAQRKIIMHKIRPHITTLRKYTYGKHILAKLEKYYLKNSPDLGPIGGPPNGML
UniProt P43378: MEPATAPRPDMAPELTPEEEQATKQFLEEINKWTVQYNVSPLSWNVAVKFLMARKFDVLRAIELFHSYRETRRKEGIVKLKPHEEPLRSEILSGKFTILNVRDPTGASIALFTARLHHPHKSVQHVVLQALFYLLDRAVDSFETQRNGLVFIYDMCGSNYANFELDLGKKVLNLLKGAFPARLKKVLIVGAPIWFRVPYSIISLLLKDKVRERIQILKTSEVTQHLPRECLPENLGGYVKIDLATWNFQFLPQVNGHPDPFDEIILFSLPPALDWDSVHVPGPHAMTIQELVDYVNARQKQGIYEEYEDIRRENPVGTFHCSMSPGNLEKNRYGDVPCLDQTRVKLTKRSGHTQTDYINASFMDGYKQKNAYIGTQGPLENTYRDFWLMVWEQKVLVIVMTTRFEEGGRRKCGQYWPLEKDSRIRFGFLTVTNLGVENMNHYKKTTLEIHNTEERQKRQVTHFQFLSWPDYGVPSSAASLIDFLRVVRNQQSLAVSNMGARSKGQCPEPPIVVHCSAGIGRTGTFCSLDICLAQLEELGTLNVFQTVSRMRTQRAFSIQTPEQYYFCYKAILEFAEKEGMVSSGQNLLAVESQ
UniProt Q9UKA9: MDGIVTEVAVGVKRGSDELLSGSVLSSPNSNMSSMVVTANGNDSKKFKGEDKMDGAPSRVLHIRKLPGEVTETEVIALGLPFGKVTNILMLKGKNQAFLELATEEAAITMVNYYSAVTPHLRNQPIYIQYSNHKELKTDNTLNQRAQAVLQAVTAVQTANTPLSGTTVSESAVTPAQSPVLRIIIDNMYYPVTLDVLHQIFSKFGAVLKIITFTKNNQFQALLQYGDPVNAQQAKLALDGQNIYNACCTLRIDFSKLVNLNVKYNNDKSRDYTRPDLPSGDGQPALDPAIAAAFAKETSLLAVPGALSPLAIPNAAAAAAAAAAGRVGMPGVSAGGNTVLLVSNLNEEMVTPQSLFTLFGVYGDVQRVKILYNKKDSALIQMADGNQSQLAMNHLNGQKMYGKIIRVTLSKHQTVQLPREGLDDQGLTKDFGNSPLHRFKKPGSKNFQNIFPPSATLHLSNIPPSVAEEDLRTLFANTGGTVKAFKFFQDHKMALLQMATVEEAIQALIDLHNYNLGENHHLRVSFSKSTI
UniProt Q9BQI7: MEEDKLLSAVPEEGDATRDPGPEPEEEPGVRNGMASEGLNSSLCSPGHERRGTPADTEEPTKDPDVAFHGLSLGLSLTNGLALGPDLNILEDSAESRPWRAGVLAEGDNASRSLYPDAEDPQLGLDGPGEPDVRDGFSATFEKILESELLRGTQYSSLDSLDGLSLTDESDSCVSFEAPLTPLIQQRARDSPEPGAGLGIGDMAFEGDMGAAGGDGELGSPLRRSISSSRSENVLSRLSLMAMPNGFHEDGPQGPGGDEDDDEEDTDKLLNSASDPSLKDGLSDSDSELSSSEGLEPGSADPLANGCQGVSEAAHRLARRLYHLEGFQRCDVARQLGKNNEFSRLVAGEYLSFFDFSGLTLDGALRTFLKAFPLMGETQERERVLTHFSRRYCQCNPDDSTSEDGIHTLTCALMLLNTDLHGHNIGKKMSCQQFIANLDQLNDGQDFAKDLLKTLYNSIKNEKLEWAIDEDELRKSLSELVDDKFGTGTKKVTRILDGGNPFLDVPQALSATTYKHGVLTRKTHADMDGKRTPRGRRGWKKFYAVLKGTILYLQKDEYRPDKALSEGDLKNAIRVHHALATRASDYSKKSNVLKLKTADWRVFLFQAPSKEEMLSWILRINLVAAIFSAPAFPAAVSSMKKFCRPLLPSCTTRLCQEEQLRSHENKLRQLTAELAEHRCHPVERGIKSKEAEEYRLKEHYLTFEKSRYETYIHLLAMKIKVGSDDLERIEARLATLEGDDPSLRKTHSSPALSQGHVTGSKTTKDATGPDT
UniProt P35236: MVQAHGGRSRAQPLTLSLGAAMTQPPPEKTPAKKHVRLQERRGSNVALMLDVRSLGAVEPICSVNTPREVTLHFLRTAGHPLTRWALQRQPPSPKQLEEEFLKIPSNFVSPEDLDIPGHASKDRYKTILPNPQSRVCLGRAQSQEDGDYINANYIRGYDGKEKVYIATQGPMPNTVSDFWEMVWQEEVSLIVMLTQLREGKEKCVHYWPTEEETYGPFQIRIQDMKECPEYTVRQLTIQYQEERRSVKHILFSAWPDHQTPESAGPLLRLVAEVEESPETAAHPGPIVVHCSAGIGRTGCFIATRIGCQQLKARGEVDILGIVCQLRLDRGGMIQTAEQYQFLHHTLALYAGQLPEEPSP
UniProt Q9UJV8: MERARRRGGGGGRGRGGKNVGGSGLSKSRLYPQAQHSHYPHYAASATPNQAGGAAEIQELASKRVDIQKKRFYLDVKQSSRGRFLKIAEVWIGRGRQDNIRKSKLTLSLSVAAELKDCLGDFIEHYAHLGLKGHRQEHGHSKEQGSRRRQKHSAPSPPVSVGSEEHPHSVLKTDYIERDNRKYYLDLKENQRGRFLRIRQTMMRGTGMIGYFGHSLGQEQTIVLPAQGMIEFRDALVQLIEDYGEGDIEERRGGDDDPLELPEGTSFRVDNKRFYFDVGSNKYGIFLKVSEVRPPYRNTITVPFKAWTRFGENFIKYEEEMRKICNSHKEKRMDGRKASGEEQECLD
UniProt Q86Y79: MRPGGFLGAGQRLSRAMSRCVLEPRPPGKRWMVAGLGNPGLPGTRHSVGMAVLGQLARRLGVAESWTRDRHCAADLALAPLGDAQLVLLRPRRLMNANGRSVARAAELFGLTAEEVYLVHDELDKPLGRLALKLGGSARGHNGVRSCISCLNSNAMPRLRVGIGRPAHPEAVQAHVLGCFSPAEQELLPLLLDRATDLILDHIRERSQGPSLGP
UniProt Q8WU10: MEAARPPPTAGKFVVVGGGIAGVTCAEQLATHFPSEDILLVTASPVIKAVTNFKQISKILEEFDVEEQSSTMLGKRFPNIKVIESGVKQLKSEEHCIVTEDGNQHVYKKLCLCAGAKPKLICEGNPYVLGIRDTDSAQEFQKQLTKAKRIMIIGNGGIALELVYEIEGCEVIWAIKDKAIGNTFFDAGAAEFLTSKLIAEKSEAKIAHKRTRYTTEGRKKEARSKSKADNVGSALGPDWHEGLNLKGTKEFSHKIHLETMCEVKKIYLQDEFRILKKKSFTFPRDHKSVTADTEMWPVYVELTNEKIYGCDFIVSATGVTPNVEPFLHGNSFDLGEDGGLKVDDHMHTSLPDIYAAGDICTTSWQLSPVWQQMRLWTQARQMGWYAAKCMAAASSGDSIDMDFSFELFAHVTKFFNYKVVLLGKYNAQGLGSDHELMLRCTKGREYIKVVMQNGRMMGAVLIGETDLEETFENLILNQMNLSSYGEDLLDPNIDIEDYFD
UniProt Q12974: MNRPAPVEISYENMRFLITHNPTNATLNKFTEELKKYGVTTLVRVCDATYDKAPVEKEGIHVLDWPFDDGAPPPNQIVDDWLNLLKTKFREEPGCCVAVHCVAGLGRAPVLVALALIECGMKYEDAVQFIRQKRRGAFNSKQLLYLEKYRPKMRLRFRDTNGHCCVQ
UniProt Q9NYI0: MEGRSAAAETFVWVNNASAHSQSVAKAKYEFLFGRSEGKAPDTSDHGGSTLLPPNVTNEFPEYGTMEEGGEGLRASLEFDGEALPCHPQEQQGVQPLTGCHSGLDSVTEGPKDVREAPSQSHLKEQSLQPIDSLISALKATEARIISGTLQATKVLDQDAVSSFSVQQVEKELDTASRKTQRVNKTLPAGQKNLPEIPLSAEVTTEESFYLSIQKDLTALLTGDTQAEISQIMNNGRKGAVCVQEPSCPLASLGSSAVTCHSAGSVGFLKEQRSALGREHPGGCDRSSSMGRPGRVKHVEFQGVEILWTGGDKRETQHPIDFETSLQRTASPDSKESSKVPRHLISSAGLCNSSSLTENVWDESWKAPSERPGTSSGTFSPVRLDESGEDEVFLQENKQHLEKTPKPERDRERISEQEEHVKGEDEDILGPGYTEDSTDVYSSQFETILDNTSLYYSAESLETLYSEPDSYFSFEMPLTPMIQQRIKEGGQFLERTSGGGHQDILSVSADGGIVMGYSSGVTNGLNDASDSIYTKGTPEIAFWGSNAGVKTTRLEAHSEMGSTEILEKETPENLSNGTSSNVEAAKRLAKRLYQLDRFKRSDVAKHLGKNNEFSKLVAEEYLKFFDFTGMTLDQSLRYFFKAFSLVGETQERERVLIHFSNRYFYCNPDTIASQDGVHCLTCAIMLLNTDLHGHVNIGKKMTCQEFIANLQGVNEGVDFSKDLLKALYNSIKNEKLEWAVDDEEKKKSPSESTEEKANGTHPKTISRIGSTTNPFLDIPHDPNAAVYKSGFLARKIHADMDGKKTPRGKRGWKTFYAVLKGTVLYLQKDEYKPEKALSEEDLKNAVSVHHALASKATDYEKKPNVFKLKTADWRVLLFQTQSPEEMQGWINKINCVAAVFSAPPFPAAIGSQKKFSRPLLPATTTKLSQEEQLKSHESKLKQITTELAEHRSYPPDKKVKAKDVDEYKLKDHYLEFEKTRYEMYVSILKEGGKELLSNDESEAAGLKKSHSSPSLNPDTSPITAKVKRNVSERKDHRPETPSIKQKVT
UniProt Q8N0Z8: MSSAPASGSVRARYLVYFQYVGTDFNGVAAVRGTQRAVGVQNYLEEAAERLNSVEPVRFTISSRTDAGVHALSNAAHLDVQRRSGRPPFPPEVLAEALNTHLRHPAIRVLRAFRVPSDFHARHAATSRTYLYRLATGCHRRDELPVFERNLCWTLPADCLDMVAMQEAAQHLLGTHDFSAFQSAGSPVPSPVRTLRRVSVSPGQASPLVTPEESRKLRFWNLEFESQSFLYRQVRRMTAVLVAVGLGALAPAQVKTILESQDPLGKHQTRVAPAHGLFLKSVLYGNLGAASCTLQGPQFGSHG

What was measured:
Assay in all cases: log2 fold change, soluble protein after heating vs DMSO (PISA); higher = thermal stabilisation; K562 cells, 10 uM, 30 min; active = over 0.2 and 3.5 SD of the protein, either way, in both replicates (recomputed)
[1] = compound: Cc1ccc(NC(=O)c2ccc(CN3CC[C@H](N(C)C)C3)c(C(F)(F)F)c2)cc1Nc1nccc(-c2cncnc2)n1 [bafetinib]
Outline: (§1)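 Values are thermal stability changes relative to control samples and are taken from duplicates. They are stated as log2 fold changes. Before quantification by TMTpro 16plex LC-MS/MS with equalised channel sums, K562 cells at 2×10^6 cells/mL were treated with 10 μM compound for 30 min, heated in aliquots for 3 min across 48°C-58°C, pooled, extracted in PBS with 0.5% NP-40 at 4°C, and centrifuged at 21,000xg for 90 min to give the soluble supernatant.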

[2] = compound: Cc1cccc(CC(=O)N2CCc3c2ccc(-c2cn(C)c4ncnc(N)c24)c3F)n1
Outline: as §1

[3] = compound: Cc1cn(-c2cc(NC(=O)c3ccc(C)c(Nc4nccc(-c5cccnc5)n4)c3)cc(C(F)(F)F)c2)cn1 [nilotinib]
Outline: as §1

[4] = compound: Cc1nc(Nc2n[nH]c3c2CN(C(=O)N[C@H](CN(C)C)c2ccccc2)C3(C)C)c2sccc2n1
Outline: as §1

[5] = compound: Cc1nc(Nc2ncc(C(=O)Nc3c(C)cccc3Cl)s2)cc(N2CCN(CCO)CC2)n1 [dasatinib]
Outline: as §1

[6] = compound: Cc1ncc(-c2ccnc(Nc3ccc(S(C)(=O)=O)cc3)n2)n1C(C)C
Outline: as §1

[7] = compound: Cn1cc(-c2ccc3c(c2)CCN3C(=O)Cc2cccc(C(F)(F)F)c2)c2c(N)ncnc21
Outline: as §1

[8] = compound: Cn1cncc1[C@@](N)(c1ccc(Cl)cc1)c1ccc2c(c1)c(-c1cccc(Cl)c1)cc(=O)n2C [tipifarnib]
Outline: as §1

[9] = compound: FC(F)(F)c1ccc(/C=C/c2nc(COc3ccc(CCCCn4ccnn4)cc3)co2)cc1 [mubritinib]
Outline: as §1

[10] = compound: Cn1cc(-c2ccc3nnc(C(F)(F)c4ccc5ncccc5c4)n3n2)cn1
Outline: as §1

Row | Target | log2 fold change [1] | log2 fold change [2] | log2 fold change [3] | log2 fold change [4] | log2 fold change [5] | log2 fold change [6] | log2 fold change [7] | log2 fold change [8] | log2 fold change [9] | log2 fold change [10]
1 | PTS (UniProt Q03393) | inactive: 0.062 | inactive: 0.045 | inactive: -0.124 | inactive: -0.013 | inactive: -0.003 | inactive: -0.113 | inactive: 0.092 | inactive: 0.032 | inactive: 0.05 | –
2 | PSIP1 (UniProt O75475) | inactive: 0.054 | inactive: -0.011 | inactive: -0.028 | inactive: 0.033 | inactive: 0.079 | inactive: -0.014 | inactive: -0.102 | inactive: 0.152 | inactive: -0.058 | inactive: -0.085
3 | PTCD3 (UniProt Q96EY7) | inactive: 0.148 | inactive: 0.147 | inactive: -0.089 | inactive: 0.06 | inactive: -0.01 | inactive: 0.016 | inactive: -0.003 | inactive: -0.038 | inactive: 0.119 | inactive: 0.018
4 | PSMD2 (UniProt Q13200) | inactive: 0.079 | inactive: 0 | inactive: -0.031 | inactive: 0.061 | inactive: 0.031 | inactive: -0.005 | inactive: -0.12 | inactive: 0.07 | inactive: -0.038 | inactive: -0.006
5 | PTK2B (UniProt Q14289) | inactive: -0.024 | inactive: -0.063 | inactive: 0.14 | inactive: 0.104 | inactive: -0.043 | inactive: 0.276 | inactive: -0.113 | inactive: -0.521 | inactive: -0.003 | inactive: -0.014
6 | PSPH (UniProt P78330) | inactive: -0.032 | inactive: -0.013 | inactive: 0.005 | inactive: 0.054 | inactive: -0.008 | inactive: -0.015 | inactive: 0.092 | inactive: -0.08 | inactive: 0.075 | inactive: -0.001
7 | PTTG1 (UniProt O95997) | inactive: 0.062 | inactive: 0.021 | inactive: -0.025 | inactive: -0.011 | inactive: 0.031 | inactive: -0.116 | inactive: 0.024 | inactive: -0.013 | inactive: 0.033 | inactive: -0.066
8 | PSMD4 (UniProt Q5VWC4) | inactive: 0.09 | inactive: -0.162 | inactive: 0.041 | inactive: 0.21 | – | inactive: 0.1 | inactive: -0.071 | inactive: 0.016 | inactive: -0.003 | –
9 | PRXL2A (UniProt Q9BRX8) | inactive: -0.055 | inactive: -0.166 | – | – | inactive: 0.364 | – | inactive: -0.049 | inactive: -0.065 | inactive: -0.005 | –
10 | PYURF (UniProt Q96I23) | inactive: 0.062 | inactive: -0.051 | inactive: 0.092 | inactive: 0.011 | inactive: 0.04 | inactive: 0.045 | inactive: 0.02 | inactive: -0.01 | inactive: 0.071 | –
11 | PSMB2, A0A087WVV1 | inactive: 0.049 | inactive: 0.065 | inactive: -0.235 | inactive: -0.039 | inactive: 0.057 | inactive: -0.121 | – | inactive: -0.106 | inactive: 0.06 | inactive: 0.025
12 | PRXL2B isoform 3 (UniProt Q8TBF2) | inactive: 0.015 | inactive: -0.068 | inactive: 0.101 | inactive: -0.043 | inactive: 0.02 | inactive: -0.055 | inactive: 0.012 | inactive: -0.017 | inactive: 0.036 | inactive: 0.011
13 | PUF60 (UniProt Q9UHX1) | inactive: 0.077 | inactive: -0.04 | inactive: -0.022 | active: -0.703 | inactive: -0.085 | inactive: -0.001 | inactive: 0.008 | inactive: -0.034 | inactive: 0.024 | inactive: -0.046
14 | PSMC3IP (UniProt Q9P2W1) | inactive: 0.284 | inactive: -0.276 | inactive: -0.202 | inactive: -0.242 | – | inactive: 0.299 | inactive: 0.032 | inactive: -0.041 | inactive: -0.029 | –
15 | PTPRS (UniProt Q13332) | inactive: -0.106 | inactive: -0.232 | inactive: 0.053 | inactive: -0.153 | inactive: 0.088 | inactive: 0.076 | – | – | – | inactive: -0.173
16 | PSMA7 isoform 2 (UniProt O14818) | inactive: -0.164 | – | inactive: -0.24 | inactive: 0.226 | – | inactive: -0.082 | inactive: -0.045 | inactive: 0.208 | inactive: -0.204 | –
17 | PUF60 isoform 2 (UniProt Q9UHX1) | inactive: -0.089 | – | – | – | inactive: -0.173 | – | inactive: 0.043 | inactive: -0.159 | inactive: -0.257 | inactive: -0.103
18 | PSD4 (UniProt Q8NDX1) | – | – | inactive: 0 | inactive: -0.488 | inactive: -0.14 | inactive: 0.164 | inactive: -0.042 | – | – | inactive: -0.021
19 | PUM2 isoform 3 (UniProt Q8TB72) | – | – | – | – | inactive: 0.033 | – | inactive: 0.051 | – | – | –
20 | R3HCC1L (UniProt Q7Z5L2) | – | inactive: -0.059 | inactive: 0.006 | inactive: -0.365 | – | inactive: 0.261 | inactive: -0.163 | inactive: 0.18 | – | –
21 | PTGER3 isoform 2 (UniProt P43115) | – | – | – | – | – | – | – | – | – | inactive: -0.098
22 | PSMA3 (UniProt H0YJ03) | – | – | – | – | inactive: 0.133 | – | inactive: 0.036 | inactive: 0.02 | – | inactive: -0.017
23 | PTPN18 (UniProt Q99952) | – | – | inactive: 0.019 | inactive: -0.171 | – | inactive: 0.011 | – | – | inactive: 0.029 | inactive: 0.04
24 | PSMC3 (UniProt E9PLG2) | inactive: 0.147 | – | – | – | inactive: 0.258 | – | – | – | inactive: 0.059 | –
25 | PTPN9 (UniProt P43378) | – | inactive: 0.039 | – | – | inactive: -0.054 | – | – | – | inactive: -0.312 | –

Reformatted: entries from further up

| Row | Target | log2 fold change [1] | log2 fold change [2] | log2 fold change [3] | log2 fold change [4] | log2 fold change [5] | log2 fold change [6] | log2 fold change [7] | log2 fold change [8] | log2 fold change [9] | log2 fold change [10] |
| --- | --- | --- | --- | --- | --- | --- | --- | --- | --- | --- | --- |
| 13 | PUF60 (UniProt Q9UHX1) | inactive: 0.077 | inactive: -0.04 | inactive: -0.022 | active: -0.703 | inactive: -0.085 | inactive: -0.001 | inactive: 0.008 | inactive: -0.034 | inactive: 0.024 | inactive: -0.046 |
| 24 | PSMC3 (UniProt E9PLG2) | inactive: 0.147 | – | – | – | inactive: 0.258 | – | – | – | inactive: 0.059 | – |

Next records:

Row | Target | log2 fold change [1] | log2 fold change [2] | log2 fold change [3] | log2 fold change [4] | log2 fold change [5] | log2 fold change [6] | log2 fold change [7] | log2 fold change [8] | log2 fold change [9] | log2 fold change [10]
26 | PTBP2 isoform 3 (UniProt Q9UKA9) | – | inactive: 0.009 | – | – | – | – | – | inactive: 0.162 | – | –
27 | PSMC1 (UniProt G3V4X1) | – | inactive: -0.579 | inactive: -0.195 | inactive: 0.042 | – | inactive: -0.046 | inactive: 0.066 | inactive: 0.479 | – | –
28 | PTEN isoform 2 (UniProt P60484) | – | inactive: 0.158 | – | – | – | – | – | inactive: -0.212 | – | inactive: -0.087
29 | PSMD8 (UniProt K7EK21) | – | – | – | – | – | – | inactive: -0.216 | – | – | –
30 | PSMB5 isoform 3 (UniProt P28074) | inactive: -0.247 | – | – | – | inactive: -0.026 | – | – | inactive: 0.22 | – | inactive: 0.157
31 | PUM1 (UniProt Q14671) | – | inactive: -0.202 | – | – | inactive: -0.207 | – | inactive: 0.229 | – | – | –
32 | PTPRN2 isoform 3 (UniProt Q92932) | inactive: -0.179 | – | inactive: 0.165 | inactive: -0.023 | inactive: 0.037 | inactive: -0.056 | inactive: 0.349 | – | inactive: 0.357 | –
33 | PSD2 (UniProt Q9BQI7) | – | – | inactive: -0.088 | inactive: 0.275 | – | inactive: -0.076 | – | – | inactive: 0.023 | inactive: 0.05
34 | PTPN7 isoform 3 (UniProt P35236) | – | – | – | – | – | – | inactive: 0.072 | inactive: -0.314 | – | inactive: -0.062
35 | PSEN1 (UniProt P49768) | inactive: 0.015 | – | inactive: 0.062 | inactive: 0.104 | inactive: 0.003 | inactive: 0.007 | inactive: 0.06 | inactive: 0.131 | inactive: 0.038 | inactive: 0.064
36 | PSMB8 (UniProt P28062) | – | inactive: 0.034 | inactive: 0.047 | inactive: -0.067 | – | inactive: 0.108 | inactive: -0.055 | – | – | –
37 | PURG (UniProt Q9UJV8) | – | – | inactive: 0.034 | inactive: 0.134 | – | inactive: 0.084 | – | – | – | –
38 | R3HCC1 (UniProt Q9Y3T6) | – | inactive: -0.071 | inactive: -0.068 | inactive: -0.261 | – | inactive: -0.276 | inactive: -0.092 | inactive: -0.03 | – | inactive: -0.246
39 | PTRH1 (UniProt Q86Y79) | – | inactive: 0.03 | – | – | inactive: 0.005 | – | inactive: -0.1 | – | – | inactive: -0.01
40 | PYROXD1 (UniProt Q8WU10) | inactive: -0.048 | – | inactive: -0.072 | inactive: 0.032 | inactive: -0.07 | inactive: 0.057 | inactive: -0.042 | inactive: -0.176 | inactive: 0.111 | inactive: -0.358
41 | PSMA3 (UniProt G3V4X5) | inactive: 0.159 | – | – | – | – | – | – | inactive: 0.067 | – | inactive: 0.174
42 | PYCARD isoform 2 (UniProt Q9ULZ3) | – | – | – | – | – | – | – | – | – | inactive: -0.018
43 | PSIP1 (UniProt V9GYT7) | – | inactive: 0.014 | inactive: -0.088 | inactive: 0.015 | inactive: -0.051 | inactive: -0.025 | inactive: -0.015 | inactive: -0.059 | inactive: 0.011 | inactive: -0.039
44 | PSEN2 (UniProt P49810) | – | inactive: -0.033 | – | – | inactive: 0.281 | – | – | – | inactive: -0.03 | inactive: 0.06
45 | PRUNE2 isoform 3 (UniProt Q8WUY3) | – | – | inactive: 0.196 | inactive: -0.124 | inactive: -0.061 | inactive: 0.079 | – | inactive: -0.173 | inactive: -0.058 | inactive: 0.012
46 | PSMB10 (UniProt P40306) | – | – | inactive: 0.126 | inactive: 0.025 | – | inactive: -0.015 | – | inactive: 0.033 | inactive: 0.039 | –
47 | PTP4A2 (UniProt Q12974) | inactive: -0.045 | – | inactive: 0.007 | inactive: -0.056 | inactive: 0.089 | active: -0.43 | inactive: 0.094 | inactive: 0.048 | inactive: 0.047 | inactive: -0.013
48 | PSD3 (UniProt Q9NYI0) | – | – | inactive: -0.117 | inactive: 0.029 | – | inactive: 0.014 | inactive: -0.002 | inactive: -0.062 | inactive: -0.035 | inactive: 0.071
49 | PUSL1 (UniProt Q8N0Z8) | – | inactive: -0.003 | – | – | – | – | inactive: -0.435 | – | inactive: 0.064 | inactive: -0.141
